From patent US20240277736A1, “USE OF […] THE TREATMENT OF NE[…] INJURY AND MIGRAINES” (priority 2020, published 2024) come the findings set out here.

The subject of the data set is TBI mice. The data set can be described thus: Morris water maze test in a mouse model of traumatic brain injury (controlled cortical impact).

`CN(C)CCc1c[nH]c2cccc(OP(=O)(O)O)c12` [Psilocybin, 4-phosphoryloxy-N,N-dimethyltryptamine]: the “Velocity of movement (in words)” value (MWM test, TBI mice) is listed as “not altered”. In addition, the “Velocity (movement speed in MWM test)” value (Psi-H (high dose), Day 3 (PID3, before drug treatment)) was 23.27 ± 1.40 cm/s; the “Velocity (movement speed in MWM test)” value (Psi-H (high dose, i.n. day 4 to day 8 after CCI), Day 10) was 25.00 ± 1.57 cm/s; the “Velocity (movement speed in MWM test)” value (Psi-H (high dose, i.n. day 4 to day 8 after CCI), Day 14) turned out to be 26.38 ± 1.22 cm/s; the “Velocity (movement speed in MWM test)” value (Psi-H (high dose, i.n. day 4 to day 8 after CCI), Day 21) is 27.06 ± 1.53 cm/s; the “Velocity (movement speed in MWM test)” value (Psi-L (low dose), Day 3 (PID3, before drug treatment)) turned out to be 26.35 ± 1.44 cm/s; the “Velocity (movement speed in MWM test)” value (Psi-L (low dose, i.n. day 4 to day 8 after CCI), Day 10) was found to be 25.79 ± 1.39 cm/s. Also, the “Velocity (movement speed in MWM test)” value is, setting by setting: (Psi-L (low dose, i.n. day 4 to day 8 after CCI), Day 14) 26.18 ± 0.76 cm/s; (Psi-L (low dose, i.n. day 4 to day 8 after CCI), Day 21) 26.66 ± 0.76 cm/s.
